Results on two substances are retold here after publication PMC9964616.

Chains of the proteins cited; added tags and fusions are not shown. Residues count along the entry.
UniProt O14786, residues 22-923: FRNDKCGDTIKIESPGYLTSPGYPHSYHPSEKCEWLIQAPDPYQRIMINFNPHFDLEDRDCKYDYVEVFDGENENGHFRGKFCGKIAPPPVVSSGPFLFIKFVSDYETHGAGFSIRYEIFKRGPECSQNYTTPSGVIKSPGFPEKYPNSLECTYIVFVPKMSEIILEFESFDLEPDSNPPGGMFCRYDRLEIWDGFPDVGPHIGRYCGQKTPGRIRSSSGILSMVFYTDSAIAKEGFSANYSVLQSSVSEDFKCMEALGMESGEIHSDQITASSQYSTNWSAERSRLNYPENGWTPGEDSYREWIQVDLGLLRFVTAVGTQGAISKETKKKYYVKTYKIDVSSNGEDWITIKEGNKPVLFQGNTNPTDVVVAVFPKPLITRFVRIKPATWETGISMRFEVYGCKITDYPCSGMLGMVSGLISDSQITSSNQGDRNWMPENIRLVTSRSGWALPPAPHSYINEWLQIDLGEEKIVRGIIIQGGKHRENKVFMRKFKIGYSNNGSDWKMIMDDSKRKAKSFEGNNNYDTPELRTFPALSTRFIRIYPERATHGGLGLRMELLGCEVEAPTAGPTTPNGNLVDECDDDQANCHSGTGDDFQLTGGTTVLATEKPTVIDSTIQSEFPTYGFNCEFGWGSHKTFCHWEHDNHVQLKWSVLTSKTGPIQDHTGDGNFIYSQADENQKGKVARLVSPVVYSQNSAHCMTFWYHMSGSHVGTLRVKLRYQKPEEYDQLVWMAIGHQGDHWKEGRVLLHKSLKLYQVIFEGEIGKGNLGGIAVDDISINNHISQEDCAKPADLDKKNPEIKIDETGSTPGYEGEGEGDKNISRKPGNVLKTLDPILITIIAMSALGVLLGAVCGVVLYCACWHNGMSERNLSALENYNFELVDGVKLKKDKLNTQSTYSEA
UniProt P35968, residues 20-1356: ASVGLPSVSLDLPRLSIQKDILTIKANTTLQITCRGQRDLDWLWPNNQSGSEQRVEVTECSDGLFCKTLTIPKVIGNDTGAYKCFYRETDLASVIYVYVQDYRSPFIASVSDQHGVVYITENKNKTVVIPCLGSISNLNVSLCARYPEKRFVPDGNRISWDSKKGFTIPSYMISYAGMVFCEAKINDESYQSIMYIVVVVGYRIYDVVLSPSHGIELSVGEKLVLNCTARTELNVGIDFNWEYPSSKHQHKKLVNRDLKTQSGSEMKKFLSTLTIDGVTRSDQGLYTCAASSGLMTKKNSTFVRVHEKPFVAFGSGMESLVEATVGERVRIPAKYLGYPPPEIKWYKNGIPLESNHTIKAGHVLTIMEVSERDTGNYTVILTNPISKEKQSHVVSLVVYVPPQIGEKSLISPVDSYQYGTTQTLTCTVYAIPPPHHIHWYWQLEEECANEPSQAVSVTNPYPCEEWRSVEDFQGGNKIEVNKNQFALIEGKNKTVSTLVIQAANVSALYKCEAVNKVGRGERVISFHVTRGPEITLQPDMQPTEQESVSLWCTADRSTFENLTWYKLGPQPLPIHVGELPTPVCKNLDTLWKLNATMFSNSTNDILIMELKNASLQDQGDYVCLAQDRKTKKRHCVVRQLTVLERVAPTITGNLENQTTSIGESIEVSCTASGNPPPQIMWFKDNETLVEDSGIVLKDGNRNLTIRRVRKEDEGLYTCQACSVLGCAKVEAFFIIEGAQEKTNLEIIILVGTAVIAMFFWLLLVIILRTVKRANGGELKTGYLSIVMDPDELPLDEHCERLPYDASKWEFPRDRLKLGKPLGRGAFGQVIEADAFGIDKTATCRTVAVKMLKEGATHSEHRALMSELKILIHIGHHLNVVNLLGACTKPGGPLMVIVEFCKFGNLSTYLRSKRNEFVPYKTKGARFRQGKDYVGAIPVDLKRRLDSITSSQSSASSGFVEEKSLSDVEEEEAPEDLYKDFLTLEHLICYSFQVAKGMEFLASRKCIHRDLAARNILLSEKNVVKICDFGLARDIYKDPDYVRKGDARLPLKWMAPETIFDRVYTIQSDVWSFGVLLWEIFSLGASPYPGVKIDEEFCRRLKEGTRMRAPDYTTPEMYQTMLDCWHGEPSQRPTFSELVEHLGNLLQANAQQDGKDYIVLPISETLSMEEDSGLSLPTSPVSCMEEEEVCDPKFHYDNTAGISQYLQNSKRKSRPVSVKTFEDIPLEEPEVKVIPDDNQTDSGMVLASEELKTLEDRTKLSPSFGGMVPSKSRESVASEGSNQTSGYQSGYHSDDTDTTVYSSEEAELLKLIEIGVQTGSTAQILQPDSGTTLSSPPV

Results are given in words; binding and its absence hold for the method and conditions named. Binding seen in cells or lysates may run through a third protein. Some entries that bind do so weakly or less than the wild type.

The target of the experiment is T1, Vascular endothelial cadherin (human (endogenous in HUVEC)) (UniProt P33151).
T1 sequence: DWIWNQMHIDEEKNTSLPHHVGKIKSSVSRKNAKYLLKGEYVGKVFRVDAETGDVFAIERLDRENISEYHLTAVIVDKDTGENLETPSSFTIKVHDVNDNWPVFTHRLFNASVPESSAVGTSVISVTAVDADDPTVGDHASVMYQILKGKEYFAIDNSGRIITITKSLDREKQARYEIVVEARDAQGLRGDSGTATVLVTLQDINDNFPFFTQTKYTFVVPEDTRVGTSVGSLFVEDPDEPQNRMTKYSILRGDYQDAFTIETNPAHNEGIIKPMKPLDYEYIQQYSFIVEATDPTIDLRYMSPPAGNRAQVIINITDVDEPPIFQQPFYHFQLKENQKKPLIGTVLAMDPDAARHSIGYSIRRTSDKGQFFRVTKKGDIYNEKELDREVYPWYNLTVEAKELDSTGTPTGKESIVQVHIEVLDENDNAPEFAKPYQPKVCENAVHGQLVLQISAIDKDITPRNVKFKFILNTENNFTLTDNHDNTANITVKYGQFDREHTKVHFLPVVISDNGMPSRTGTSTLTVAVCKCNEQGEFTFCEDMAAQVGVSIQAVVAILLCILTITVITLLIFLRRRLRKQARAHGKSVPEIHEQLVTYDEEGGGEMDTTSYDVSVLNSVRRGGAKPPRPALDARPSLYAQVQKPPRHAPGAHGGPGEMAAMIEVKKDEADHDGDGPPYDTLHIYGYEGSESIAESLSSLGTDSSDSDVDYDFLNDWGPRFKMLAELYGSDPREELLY
Nature of the experiment: co-IP; HUVEC total protein in RIPA buffer, precleared with anti-species-specific IgG beads; incubated with antibodies to NRP1, VE-Cad and VEGFR2 for 1 h at 4 °C, then protein A/G agarose beads overnight at 4 °C; Western blotting.

For “Neuropilin 1 (from UniProt O14786 22-923) (receptor)”, the binding result is reported as “binds”.

As to “VEGFR2 (from UniProt P35968 20-1356) (receptor)”, the binding entry is “binds”.
